{
  "source": "paper PMC7862700",
  "note": "Only a part is listed here, and it is no random draw. For part of these data: At the low end of the ranking the order means little. Some of the results follow. For part of these data: The source does not settle which construct or isoform was used.",
  "data": [
    {"target": "T1, GABPA (UniProt Q06546)", "T1 sequence": "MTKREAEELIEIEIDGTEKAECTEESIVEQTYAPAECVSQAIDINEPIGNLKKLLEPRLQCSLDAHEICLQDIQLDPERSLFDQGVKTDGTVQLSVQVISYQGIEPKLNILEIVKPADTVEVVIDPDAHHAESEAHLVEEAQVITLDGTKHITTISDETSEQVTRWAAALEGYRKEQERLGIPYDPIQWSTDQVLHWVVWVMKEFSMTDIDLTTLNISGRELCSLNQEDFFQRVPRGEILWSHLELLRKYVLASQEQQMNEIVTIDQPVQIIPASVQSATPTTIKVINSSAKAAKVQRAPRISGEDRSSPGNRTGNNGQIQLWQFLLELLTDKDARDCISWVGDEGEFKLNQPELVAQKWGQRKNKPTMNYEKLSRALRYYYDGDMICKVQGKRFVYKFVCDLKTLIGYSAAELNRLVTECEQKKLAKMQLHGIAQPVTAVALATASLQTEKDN", "assay": "DAPPL (digital affinity profiling via proximity ligation, sequencing)", "details": "10 mM Tris-HCl pH 7.5, 50 mM NaCl, 1 mM DTT, 4% glycerol, room temperature, 30 min; GST-TFs on glutathione beads, 16-mer random dsDNA library, 0.1% …; high values mean tight binding; double strand, one strand shown; scale: fold enrichment (6-mer frequency, TF over GST control)", "values": [
      {"sequence": "CAAAGT", "binding signal": 0.943},
      {"sequence": "CTGAGG", "binding signal": 0.8},
      {"sequence": "GACCCA", "binding signal": 0.943},
      {"sequence": "TAACCG", "binding signal": 0.98},
      {"sequence": "TGGGCG", "binding signal": 0.75},
      {"sequence": "AGTTAT", "binding signal": 0.894},
      {"sequence": "AGCCCA", "binding signal": 0.931},
      {"sequence": "TAGGCA", "binding signal": 0.995},
      {"sequence": "TGACGC", "binding signal": 1.15},
      {"sequence": "GAATGA", "binding signal": 0.991},
      {"sequence": "TCTGCG", "binding signal": 1.27},
      {"sequence": "CTCGAG", "binding signal": 1.35},
      {"sequence": "AGCTGA", "binding signal": 1.01},
      {"sequence": "GGCGTT", "binding signal": 0.909},
      {"sequence": "GTTTAG", "binding signal": 0.857},
      {"sequence": "AGGCTA", "binding signal": 0.948},
      {"sequence": "CCGAAC", "binding signal": 1.29},
      {"sequence": "TCAAGC", "binding signal": 0.978},
      {"sequence": "CCCGCT", "binding signal": 1.34},
      {"sequence": "CATATG", "binding signal": 1.09},
      {"sequence": "AGGGAA", "binding signal": 0.837},
      {"sequence": "GTGATG", "binding signal": 0.986},
      {"sequence": "CAGCTC", "binding signal": 1.01},
      {"sequence": "AGTCTT", "binding signal": 0.907},
      {"sequence": "CAAGCT", "binding signal": 0.98},
      {"sequence": "CACCTA", "binding signal": 1.04},
      {"sequence": "GCAGCA", "binding signal": 0.998},
      {"sequence": "GCGACG", "binding signal": 0.998},
      {"sequence": "GTATGA", "binding signal": 0.935},
      {"sequence": "GTGGCC", "binding signal": 1.06},
      {"sequence": "GGTTAA", "binding signal": 0.889},
      {"sequence": "CTGGCG", "binding signal": 0.761},
      {"sequence": "TTGGTT", "binding signal": 1.45},
      {"sequence": "TGGTTG", "binding signal": 0.927},
      {"sequence": "ATAGTG", "binding signal": 0.959},
      {"sequence": "GGATAA", "binding signal": 0.746},
      {"sequence": "TCCGTT", "binding signal": 1.42},
      {"sequence": "GTTTTA", "binding signal": 1.14},
      {"sequence": "CCACCG", "binding signal": 0.976},
      {"sequence": "GCCCTG", "binding signal": 0.992}
    ]},
    {"target": "T2, ETS1 (UniProt P14921)", "T2 sequence": "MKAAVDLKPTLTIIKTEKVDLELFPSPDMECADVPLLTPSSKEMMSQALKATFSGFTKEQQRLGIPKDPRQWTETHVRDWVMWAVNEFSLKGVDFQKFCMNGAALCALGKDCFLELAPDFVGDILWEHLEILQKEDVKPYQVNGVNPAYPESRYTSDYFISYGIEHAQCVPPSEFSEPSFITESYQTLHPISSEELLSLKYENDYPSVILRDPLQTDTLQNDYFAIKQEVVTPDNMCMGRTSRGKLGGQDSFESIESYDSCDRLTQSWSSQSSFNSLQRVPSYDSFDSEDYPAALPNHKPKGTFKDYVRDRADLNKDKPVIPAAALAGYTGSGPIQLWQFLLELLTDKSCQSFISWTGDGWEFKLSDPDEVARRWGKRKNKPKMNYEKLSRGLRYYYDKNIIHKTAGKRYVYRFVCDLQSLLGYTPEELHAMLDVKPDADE", "assay": "DAPPL (digital affinity profiling via proximity ligation, sequencing)", "details": "10 mM Tris-HCl pH 7.5, 50 mM NaCl, 1 mM DTT, 4% glycerol, room temperature, 30 min; GST-TFs on glutathione beads, 16-mer random dsDNA library, 0.1% …; high values mean tight binding; double strand, one strand shown; scale: fold enrichment (6-mer frequency, TF over GST control)", "values": [
      {"sequence": "CAAAGT", "binding signal": 0.958},
      {"sequence": "CTGAGG", "binding signal": 0.903},
      {"sequence": "GACCCA", "binding signal": 0.884},
      {"sequence": "TAACCG", "binding signal": 1.03},
      {"sequence": "TGGGCG", "binding signal": 0.803},
      {"sequence": "AGTTAT", "binding signal": 0.889},
      {"sequence": "AGCCCA", "binding signal": 1.04},
      {"sequence": "TAGGCA", "binding signal": 0.931},
      {"sequence": "TGACGC", "binding signal": 1.25},
      {"sequence": "GAATGA", "binding signal": 0.961},
      {"sequence": "TCTGCG", "binding signal": 1.29},
      {"sequence": "CTCGAG", "binding signal": 1.42},
      {"sequence": "AGCTGA", "binding signal": 1.03},
      {"sequence": "GGCGTT", "binding signal": 1.04},
      {"sequence": "GTTTAG", "binding signal": 0.827},
      {"sequence": "AGGCTA", "binding signal": 0.901},
      {"sequence": "CCGAAC", "binding signal": 1.33},
      {"sequence": "TCAAGC", "binding signal": 1.1},
      {"sequence": "CCCGCT", "binding signal": 1.43},
      {"sequence": "CATATG", "binding signal": 1.03},
      {"sequence": "AGGGAA", "binding signal": 0.929},
      {"sequence": "GTGATG", "binding signal": 0.983},
      {"sequence": "CAGCTC", "binding signal": 0.953},
      {"sequence": "AGTCTT", "binding signal": 1.01},
      {"sequence": "CAAGCT", "binding signal": 0.978},
      {"sequence": "CACCTA", "binding signal": 0.994},
      {"sequence": "GCAGCA", "binding signal": 0.961},
      {"sequence": "GCGACG", "binding signal": 0.885},
      {"sequence": "GTATGA", "binding signal": 0.953},
      {"sequence": "GTGGCC", "binding signal": 1.09},
      {"sequence": "GGTTAA", "binding signal": 0.902},
      {"sequence": "CTGGCG", "binding signal": 0.766},
      {"sequence": "TTGGTT", "binding signal": 1.49},
      {"sequence": "TGGTTG", "binding signal": 1.02},
      {"sequence": "ATAGTG", "binding signal": 0.944},
      {"sequence": "GGATAA", "binding signal": 0.823},
      {"sequence": "TCCGTT", "binding signal": 1.55},
      {"sequence": "GTTTTA", "binding signal": 1.15},
      {"sequence": "CCACCG", "binding signal": 1.01},
      {"sequence": "GCCCTG", "binding signal": 1.07}
    ]},
    {"target": "T3, SPDEF (UniProt O95238)", "T3 sequence": "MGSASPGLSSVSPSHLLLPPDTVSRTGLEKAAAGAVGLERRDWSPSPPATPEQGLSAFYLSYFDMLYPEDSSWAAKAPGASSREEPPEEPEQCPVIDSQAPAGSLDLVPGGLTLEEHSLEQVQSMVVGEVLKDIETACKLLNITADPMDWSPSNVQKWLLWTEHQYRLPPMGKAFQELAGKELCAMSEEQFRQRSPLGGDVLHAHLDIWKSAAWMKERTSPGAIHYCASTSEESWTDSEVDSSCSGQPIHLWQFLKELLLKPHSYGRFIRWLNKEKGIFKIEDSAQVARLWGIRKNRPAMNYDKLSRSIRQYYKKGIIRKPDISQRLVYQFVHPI", "assay": "DAPPL (digital affinity profiling via proximity ligation, sequencing)", "details": "10 mM Tris-HCl pH 7.5, 50 mM NaCl, 1 mM DTT, 4% glycerol, room temperature, 30 min; GST-TFs on glutathione beads, 16-mer random dsDNA library, 0.1% …; high values mean tight binding; double strand, one strand shown; scale: fold enrichment (6-mer frequency, TF over GST control)", "values": [
      {"sequence": "CAAAGT", "binding signal": 0.915},
      {"sequence": "CTGAGG", "binding signal": 0.758},
      {"sequence": "GACCCA", "binding signal": 0.902},
      {"sequence": "TAACCG", "binding signal": 1.1},
      {"sequence": "TGGGCG", "binding signal": 0.814},
      {"sequence": "AGTTAT", "binding signal": 0.854},
      {"sequence": "AGCCCA", "binding signal": 0.855},
      {"sequence": "TAGGCA", "binding signal": 0.955},
      {"sequence": "TGACGC", "binding signal": 1.13},
      {"sequence": "GAATGA", "binding signal": 0.879},
      {"sequence": "TCTGCG", "binding signal": 1.21},
      {"sequence": "CTCGAG", "binding signal": 1.16},
      {"sequence": "AGCTGA", "binding signal": 0.872},
      {"sequence": "GGCGTT", "binding signal": 0.93},
      {"sequence": "GTTTAG", "binding signal": 0.862},
      {"sequence": "AGGCTA", "binding signal": 0.94},
      {"sequence": "CCGAAC", "binding signal": 1.28},
      {"sequence": "TCAAGC", "binding signal": 0.939},
      {"sequence": "CCCGCT", "binding signal": 1.32},
      {"sequence": "CATATG", "binding signal": 0.98},
      {"sequence": "AGGGAA", "binding signal": 0.916},
      {"sequence": "GTGATG", "binding signal": 0.855},
      {"sequence": "CAGCTC", "binding signal": 0.936},
      {"sequence": "AGTCTT", "binding signal": 0.866},
      {"sequence": "CAAGCT", "binding signal": 0.93},
      {"sequence": "CACCTA", "binding signal": 0.959},
      {"sequence": "GCAGCA", "binding signal": 0.933},
      {"sequence": "GCGACG", "binding signal": 0.784},
      {"sequence": "GTATGA", "binding signal": 0.96},
      {"sequence": "GTGGCC", "binding signal": 0.871},
      {"sequence": "GGTTAA", "binding signal": 0.921},
      {"sequence": "CTGGCG", "binding signal": 0.806},
      {"sequence": "TTGGTT", "binding signal": 1.45},
      {"sequence": "TGGTTG", "binding signal": 0.993},
      {"sequence": "ATAGTG", "binding signal": 0.837},
      {"sequence": "GGATAA", "binding signal": 0.828},
      {"sequence": "TCCGTT", "binding signal": 1.74},
      {"sequence": "GTTTTA", "binding signal": 1.04},
      {"sequence": "CCACCG", "binding signal": 0.931},
      {"sequence": "GCCCTG", "binding signal": 0.85}
    ]}
  ]
}
